Data from paper PMC8901925.
These are yes or no findings as the source states them, for the method shown. Binding seen in cells or lysates may run through a third protein. A yes stands for co-enrichment or nearness to the bait. Other partners may have been found. Tags and fused reporters may be left off the sequences shown.

Sequences of proteins named here, by UniProt entry; tags and fusion partners are left off.
UniProt P35579: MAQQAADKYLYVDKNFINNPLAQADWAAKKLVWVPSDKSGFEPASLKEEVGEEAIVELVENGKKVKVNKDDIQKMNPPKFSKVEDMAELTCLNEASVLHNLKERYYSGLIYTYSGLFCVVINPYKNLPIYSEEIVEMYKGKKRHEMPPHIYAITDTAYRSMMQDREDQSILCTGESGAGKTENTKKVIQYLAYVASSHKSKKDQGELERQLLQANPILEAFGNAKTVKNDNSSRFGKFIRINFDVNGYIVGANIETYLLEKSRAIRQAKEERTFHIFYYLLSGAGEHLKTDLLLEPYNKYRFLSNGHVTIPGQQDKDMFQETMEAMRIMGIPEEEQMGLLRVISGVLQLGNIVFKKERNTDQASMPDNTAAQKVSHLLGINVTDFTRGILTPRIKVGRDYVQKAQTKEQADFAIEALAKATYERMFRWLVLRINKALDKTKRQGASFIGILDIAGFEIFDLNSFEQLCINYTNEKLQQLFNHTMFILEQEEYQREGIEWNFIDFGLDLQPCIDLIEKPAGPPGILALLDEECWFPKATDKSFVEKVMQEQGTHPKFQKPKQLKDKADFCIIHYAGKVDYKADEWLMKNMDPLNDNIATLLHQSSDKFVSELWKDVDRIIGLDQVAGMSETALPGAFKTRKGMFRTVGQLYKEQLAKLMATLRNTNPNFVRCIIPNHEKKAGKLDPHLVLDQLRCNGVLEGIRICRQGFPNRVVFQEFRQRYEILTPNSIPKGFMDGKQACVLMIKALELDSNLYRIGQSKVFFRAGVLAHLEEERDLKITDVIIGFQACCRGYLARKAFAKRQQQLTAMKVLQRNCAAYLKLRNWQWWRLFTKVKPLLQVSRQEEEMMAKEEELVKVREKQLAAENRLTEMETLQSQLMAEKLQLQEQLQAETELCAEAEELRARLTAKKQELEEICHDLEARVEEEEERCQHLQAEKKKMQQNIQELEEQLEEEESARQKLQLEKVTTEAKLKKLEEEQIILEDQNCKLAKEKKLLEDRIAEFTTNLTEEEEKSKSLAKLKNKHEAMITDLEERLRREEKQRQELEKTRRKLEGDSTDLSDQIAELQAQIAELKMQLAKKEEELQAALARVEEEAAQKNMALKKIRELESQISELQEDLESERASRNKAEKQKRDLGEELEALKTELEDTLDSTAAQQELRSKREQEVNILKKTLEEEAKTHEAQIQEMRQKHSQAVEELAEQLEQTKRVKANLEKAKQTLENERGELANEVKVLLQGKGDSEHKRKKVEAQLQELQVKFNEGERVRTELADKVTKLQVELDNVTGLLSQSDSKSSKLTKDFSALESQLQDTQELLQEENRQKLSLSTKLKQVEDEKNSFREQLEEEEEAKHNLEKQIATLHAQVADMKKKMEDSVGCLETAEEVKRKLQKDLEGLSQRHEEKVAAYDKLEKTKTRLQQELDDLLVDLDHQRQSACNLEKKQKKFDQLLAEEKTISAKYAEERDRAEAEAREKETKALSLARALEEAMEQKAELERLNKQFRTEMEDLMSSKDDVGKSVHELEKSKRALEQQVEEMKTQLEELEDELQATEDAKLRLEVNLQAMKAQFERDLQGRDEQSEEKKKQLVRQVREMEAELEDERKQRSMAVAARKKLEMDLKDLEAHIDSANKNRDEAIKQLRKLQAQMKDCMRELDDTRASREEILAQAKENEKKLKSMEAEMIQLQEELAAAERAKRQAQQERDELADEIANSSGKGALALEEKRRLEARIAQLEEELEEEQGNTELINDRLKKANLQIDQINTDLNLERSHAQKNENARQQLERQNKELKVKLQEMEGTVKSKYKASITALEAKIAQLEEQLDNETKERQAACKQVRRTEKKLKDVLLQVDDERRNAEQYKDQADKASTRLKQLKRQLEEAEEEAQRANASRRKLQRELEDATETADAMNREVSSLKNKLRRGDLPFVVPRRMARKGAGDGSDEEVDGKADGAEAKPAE

Biological target: T1, Glycoprotein prostaglandin D2 synthase (PTGDS) (human (endogenous in LY1 and LY3)) (UniProt P41222)
T1 sequence (chain, N-glycosylation at Asn51 and Asn78): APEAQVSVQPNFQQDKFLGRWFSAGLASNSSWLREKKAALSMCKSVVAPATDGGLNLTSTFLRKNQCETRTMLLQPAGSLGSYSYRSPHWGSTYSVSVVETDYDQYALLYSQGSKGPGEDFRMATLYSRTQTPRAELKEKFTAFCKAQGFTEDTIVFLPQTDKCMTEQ
Test: affinity purification with mass spectrometry; co-immunoprecipitation of PTGDS (Pierce Co-Immunoprecipitation Kit) from DLBCL cells, mass spectrometry by Novogene

- binding: binds
Substance: MYH9 (from UniProt P35579 1-1960)
